PubChem BioAssay AID1159584 | Peter MacCallum Cancer Centre | 2016
Shown is one part, drawn at random, of about 18,000 deposited reagents. Further read-outs or replicates are left out here. The record does not give: the amount of reagent, the time to read-out.

Purpose: 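Genes whose loss is lethal only together with E-cadherin loss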 (primary screen)
Cells: human MCF10A breast epithelial cells, parental and CDH1-null
Reagent: siRNA against human genes
Measurement: 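ATP luminescence (CellTiter-Glo) viability per line relative to mean mock wells over all plates, and the ratio of CDH1-null to parental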
Direction: CDH1-null / parental viability ratio: higher = CDH1-null cells survive relatively better than parental

Which result is listed for SEC22C?
CDH1-null / parental viability ratio: 0.97

With CHMP4A, how do the results read?
CDH1-null / parental viability ratio: 1.23

With SLC2A2, what was measured?
CDH1-null / parental viability ratio: 0.88

Which result is listed for TAS2R16?
CDH1-null / parental viability ratio: 0.99

With USP10, what does the deposit list?
CDH1-null / parental viability ratio: 1.05

For GP9, what does the deposit list?
CDH1-null / parental viability ratio: 1.2

With P2RX3, what was measured?
CDH1-null / parental viability ratio: 1.33

For MMP27, what was measured?
CDH1-null / parental viability ratio: 1.16

With FAM3C, what does the deposit list?
CDH1-null / parental viability ratio: 1.24

How did the screen score GSTA1?
CDH1-null / parental viability ratio: 0.74

With ARFGEF3, what was measured?
CDH1-null / parental viability ratio: 0.91

What is on record for GPC6?
CDH1-null / parental viability ratio: 1

What is on record for OR2C1?
CDH1-null / parental viability ratio: 1.2

How did the screen score TRPM8?
CDH1-null / parental viability ratio: 1.11

With GNG5, how do the results read?
CDH1-null / parental viability ratio: 0.79

For IFT25, how do the results read?
CDH1-null / parental viability ratio: 1.07

For ANO2, what does the deposit list?
CDH1-null / parental viability ratio: 1.07

For ZAP70, what does the deposit list?
CDH1-null / parental viability ratio: 0.92

For RLN1, what was measured?
CDH1-null / parental viability ratio: 1.1

With CD3D, how do the results read?
CDH1-null / parental viability ratio: 1.12

For KRTAP10-10, what was measured?
CDH1-null / parental viability ratio: 1.09

What did the screen give for CLHC1?
CDH1-null / parental viability ratio: 0.92

For AP3M2, how do the results read?
CDH1-null / parental viability ratio: 0.81

Which result is listed for XPO1?
CDH1-null / parental viability ratio: 1.03

What did the screen give for AKR7A2?
CDH1-null / parental viability ratio: 0.82

For ISG20L2, how do the results read?
CDH1-null / parental viability ratio: 1

For LIPH, how do the results read?
CDH1-null / parental viability ratio: 1.09

How did the screen score CGB8?
CDH1-null / parental viability ratio: 0.77

How did the screen score PF4V1?
CDH1-null / parental viability ratio: 0.94

How did the screen score KATNBL1?
CDH1-null / parental viability ratio: 0.73

What did the screen give for CPLX3?
CDH1-null / parental viability ratio: 0.96

What is on record for SGK3?
CDH1-null / parental viability ratio: 1.06

What is on record for BAAT?
CDH1-null / parental viability ratio: 0.94

How did the screen score PDE10A?
CDH1-null / parental viability ratio: 0.98

With ELAVL1, what was measured?
CDH1-null / parental viability ratio: 1.04

Already shown: entries from further up.
P2RX3: CDH1-null / parental viability ratio = 1.33
MMP27: CDH1-null / parental viability ratio = 1.16
FAM3C: CDH1-null / parental viability ratio = 1.24
GSTA1: CDH1-null / parental viability ratio = 0.74
ARFGEF3: CDH1-null / parental viability ratio = 0.91
